Measurements: paper PMC2375285, “Inhibition of all-TRANS-retinoic acid metabolism by R116010 induces antitumour activity” (British Journal of Cancer, 2002)

Molecular target: T1, aromatase (CYP19) (Homo sapiens, UniProt P11511)
T1 construct: aromatase (CYP19) in human placental microsomes; from tissue; host or cells: human placenta, microsomes
T1 sequence (P11511 1-503): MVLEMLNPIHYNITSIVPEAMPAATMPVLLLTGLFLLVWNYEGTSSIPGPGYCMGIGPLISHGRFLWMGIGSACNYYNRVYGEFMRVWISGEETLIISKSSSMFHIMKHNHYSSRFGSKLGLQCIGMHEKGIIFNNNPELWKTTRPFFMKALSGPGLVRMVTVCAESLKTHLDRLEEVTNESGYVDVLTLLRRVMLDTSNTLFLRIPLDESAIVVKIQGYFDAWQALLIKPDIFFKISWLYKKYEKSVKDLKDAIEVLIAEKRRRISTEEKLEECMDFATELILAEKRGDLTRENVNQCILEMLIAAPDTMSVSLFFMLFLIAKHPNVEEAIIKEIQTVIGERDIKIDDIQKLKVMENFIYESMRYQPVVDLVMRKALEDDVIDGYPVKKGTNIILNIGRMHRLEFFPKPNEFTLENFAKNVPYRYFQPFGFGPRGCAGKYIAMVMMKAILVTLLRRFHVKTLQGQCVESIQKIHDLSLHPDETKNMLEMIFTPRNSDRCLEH
Experiment: Aromatase, conversion of androstenedione to estrone in human placental microsomes
Assay type: biochemical

For `Clc1cccc(C(c2ccc3[nH]cnc3c2)n2ccnc2)c1.Clc1cccc(C(c2ccc3[nH]cnc3c2)n2ccnc2)c1.O=C(O)/C=C/C(=O)O.O=C(O)/C=C/C(=O)O.O=C(O)/C=C/C(=O)O` (racemic) [liarozole-fumarate, ±-5-[(3-chlorophenyl)(1H-imidazole-1-yl)methyl]-1H-benzimidazole (E)-2-butenedioate (2:3), reference compound], the IC50 was 3 nM.
